This assay has as its target tandem-affinity purification (TAP)-tagged NEMO (UniProt Q9Y6K9). In words: co-IP; Flag-M2 beads on lysates of A549 TAP-NEMO, TAP-HOIP-WT or TAP-HOIP-C885S rescue cells; cells primed with 100 U/mL IFNα for 24 h, mock or infected with SeV 1:300 (3 h p.i. for TAP-NEMO; indicated times for TAP-HOIP); 100 mM NaCl, 40 mM Tris-HCl pH 7.5, 1 mM CaCl2, 1 mM MgCl2, with 1% Triton X-100 and 0.1% SDS for the sonicated pellet; 16 h at 4 °C; Western blot. On the technique in general: In western blotting, separated proteins are transferred to a membrane and probed.

Protein sequences, listed by entry. Tags and fused reporters are not part of them.
UniProt Q9Y6K9: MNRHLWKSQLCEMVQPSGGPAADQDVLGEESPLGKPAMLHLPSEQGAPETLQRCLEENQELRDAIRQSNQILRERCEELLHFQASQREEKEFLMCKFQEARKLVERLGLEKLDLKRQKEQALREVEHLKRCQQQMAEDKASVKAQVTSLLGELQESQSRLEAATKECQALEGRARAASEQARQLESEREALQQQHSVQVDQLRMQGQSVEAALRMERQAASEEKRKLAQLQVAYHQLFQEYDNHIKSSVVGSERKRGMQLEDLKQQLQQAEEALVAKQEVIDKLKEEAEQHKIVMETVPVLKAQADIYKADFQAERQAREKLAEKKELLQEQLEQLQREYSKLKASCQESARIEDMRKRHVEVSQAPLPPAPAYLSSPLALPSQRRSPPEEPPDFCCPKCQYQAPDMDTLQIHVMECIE
UniProt Q96EP0: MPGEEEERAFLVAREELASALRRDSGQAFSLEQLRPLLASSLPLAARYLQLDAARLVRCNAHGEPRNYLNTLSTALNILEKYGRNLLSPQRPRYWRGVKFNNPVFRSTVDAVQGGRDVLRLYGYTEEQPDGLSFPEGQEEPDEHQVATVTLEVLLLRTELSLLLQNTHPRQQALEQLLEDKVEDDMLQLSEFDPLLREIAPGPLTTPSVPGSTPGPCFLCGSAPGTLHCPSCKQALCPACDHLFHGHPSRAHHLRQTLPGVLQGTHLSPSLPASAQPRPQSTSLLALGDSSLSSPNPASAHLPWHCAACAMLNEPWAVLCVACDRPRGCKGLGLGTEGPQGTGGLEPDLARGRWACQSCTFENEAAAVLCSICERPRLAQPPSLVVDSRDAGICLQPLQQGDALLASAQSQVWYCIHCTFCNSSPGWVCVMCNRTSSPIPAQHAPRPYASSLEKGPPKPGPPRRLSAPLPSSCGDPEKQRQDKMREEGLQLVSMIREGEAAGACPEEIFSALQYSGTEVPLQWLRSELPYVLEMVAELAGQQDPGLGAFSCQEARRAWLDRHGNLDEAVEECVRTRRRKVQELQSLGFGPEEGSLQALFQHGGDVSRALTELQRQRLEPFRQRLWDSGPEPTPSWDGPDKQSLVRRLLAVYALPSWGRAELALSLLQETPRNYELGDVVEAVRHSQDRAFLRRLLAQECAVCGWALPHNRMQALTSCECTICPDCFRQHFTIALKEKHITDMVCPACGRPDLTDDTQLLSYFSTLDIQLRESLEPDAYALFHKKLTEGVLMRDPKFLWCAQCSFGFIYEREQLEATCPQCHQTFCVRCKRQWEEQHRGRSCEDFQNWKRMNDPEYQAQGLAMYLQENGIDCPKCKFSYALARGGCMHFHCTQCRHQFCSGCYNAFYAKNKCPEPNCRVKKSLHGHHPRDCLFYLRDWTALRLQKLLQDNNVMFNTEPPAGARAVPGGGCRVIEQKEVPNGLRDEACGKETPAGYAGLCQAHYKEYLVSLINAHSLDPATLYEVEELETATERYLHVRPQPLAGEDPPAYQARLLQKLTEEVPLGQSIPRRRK

Results are given in words; binding and its absence hold for the method and conditions named. Binding seen in cells or lysates may run through a third protein. Some binding calls cover weakened binding; strength is not graded here.

As for “HOIL-1-interacting protein (HOIP) (from UniProt Q96EP0 1-1072) (enzyme)”, the binding result is “binds”.

The record behind these values is paper PMC10781740.
